Assay results: paper PMC6117607
No constants are given. Whether binding was seen depends on the method and setting. Binding seen in cells or lysates may run through a third protein. Some results given as binding are weak or reduced against the parent protein; the word gives no strength. Sequences can lack the tags named with a protein.

Molecular target: T1, HA-SNX5 (UniProt Q9Y5X3)
T1 sequence: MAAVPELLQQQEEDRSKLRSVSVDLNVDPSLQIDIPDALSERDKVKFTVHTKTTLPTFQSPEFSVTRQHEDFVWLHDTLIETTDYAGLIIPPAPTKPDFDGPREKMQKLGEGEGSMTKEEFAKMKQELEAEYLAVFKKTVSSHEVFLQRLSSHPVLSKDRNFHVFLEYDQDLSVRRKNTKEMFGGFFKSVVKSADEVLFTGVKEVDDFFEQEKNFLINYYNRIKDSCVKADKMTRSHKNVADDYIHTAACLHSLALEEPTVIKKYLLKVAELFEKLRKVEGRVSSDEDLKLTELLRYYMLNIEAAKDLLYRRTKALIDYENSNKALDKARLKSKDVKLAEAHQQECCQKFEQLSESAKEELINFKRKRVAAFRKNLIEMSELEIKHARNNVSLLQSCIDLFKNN
Experiment: co-IP; COS7 cells co-expressing HA-SNX5 and Flag-hCI-M6PR-tail; NP-40 lysis buffer (150 mmol/L NaCl, 50 mmol/L Tris-HCl pH 8.0, 5 mmol/L EDTA, 0.5% NP-40); immunoprecipitated with anti-HA on protein A/G agarose, 2 hours at 4 °C; blotted with anti-Flag

B1: Flag-hCI-M6PR-tail (domain or fragment, UniProt P11717 2328-2491)
chain: KKERRETVISKLTTCCRRSSNVSYKYSKVNKEEETDENETEWLMEEIQLPPPRQGKEGQENGHITTKSVKALSSLHGDDQDSEDEVLTIPEVKVHSGRGAGAESSHPVRNAQSNALQEREDDRVGLVRGEKARKGKSSSAQQKTVSSTKLVSFHDDSDEDLLHI
- binding: binds
